In the supplement of paper PMC12067093, “Discovery and optimisation of a covalent ligand for TRIM25 and its application to targeted protein ubiquitination” (Chemical Science, 2025):
The other results are listed elsewhere or left out.

Compound: CC1Cc2ccccc2N1C(=O)C1CCCN(C1)C(=O)CCl (mixture of isomers) [TRIM25 ligand 11 (diastereomer mixture)]
Test: probe-labelled cysteine peptide fold change vs DMSO (competition) (log2 fold change); higher = less target engagement (more negative = stronger competition)
Details: 10 µM; THP-1; incubation time: 4 h
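Further: competitive chemoproteomic profiling in live THP-1 cells with an iodoacetamide desthiobiotin (IA-DTB) probe, comparing probe-labelled peptide intensities in compound-treated cells against DMSO-treated controls.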

Target	probe-labelled cysteine peptide fold change
OXR1_Q8N573-2_50_EPAQGDLGCGSPPHRPPAPSSPEGPDTGQK (UniProt Q8N573)	-0.184
OLA1_Q9NTK5_117_GAHNGQGLGNAFLSHISACDGIFHLTR (UniProt Q9NTK5)	0.114
PA2G4_Q9UQ80_296_MGVVECAKHELLQPFNVLYEK (UniProt Q9UQ80)	-0.781
OTULIN_Q96BN8_347_VCEETSL (UniProt Q96BN8)	-0.0513
PARP12_Q9H0J9_276_DSSGSVSPNTLSQEEGDQICLYHIR (UniProt Q9H0J9)	-0.129
P4HB_P07237_400_NVFVEFYAPWCGHCK (UniProt P07237)	-0.0822
OTULIN_Q96BN8_215_QIACDELFTNEAEEYSLYEAVK (UniProt Q96BN8)	-0.114
PARP10_Q53GL7_50_LGCGGVLTFREPADAER (UniProt Q53GL7)	-0.0676
OTUB1_Q96FW1_91_TRPDGNCFYR (UniProt Q96FW1)	-0.204
ORC3_Q9UBD5_639_LHLECSR (UniProt Q9UBD5)	0.0425
PAN2_Q504Q3_745_HLPDILVINCEVNSSK (UniProt Q504Q3)	-0.127
OSGEPL1_Q9H4B0_216_HPECSTMSGGK (UniProt Q9H4B0)	0.187
PARK7_Q99497_46_DPVQCSR (UniProt Q99497)	0.105
PAG1_Q9NWQ8_179_DSSSQENMVEDCLYETVK (UniProt Q9NWQ8)	-0.115
ORC3_Q9UBD5_10_GCFVFKPNSK (UniProt Q9UBD5)	-0.0669
PAPOLA_P51003_677_TEEDETSEDANCLALSGHDK (UniProt P51003)	0.115
PAPSS2_O95340_155_KIHESAGLPFFEIFVDAPLNICESR (UniProt O95340)	-0.0298
PAFAH1B1_P43034_330_MWDVSTGMCLMTLVGHDNWVR (UniProt P43034)	0.174

Target	probe-labelled cysteine peptide fold change
PAPOLA_P51003_36_ETDCVLTQK (UniProt P51003)	-0.114
PACSIN1_Q9BY11_424_LGEEDEQGWCR (UniProt Q9BY11)	0.116
OSBP_P22059_517_SLCEQVSHHPPAAAHHAESK (UniProt P22059)	0.0939
OTUD4_Q01804_903_DCGSVSTVDEFPEAR (UniProt Q01804)	0.089
OSBPL9_Q96SU4_720_LFHEDGECWVYDEPLLK (UniProt Q96SU4)	-0.083
PAICS_P22234_81+91+100_CGETAFIAPQCEMIPIEWVCR (UniProt P22234)	-0.11
ORC3_Q9UBD5_561_ENVVNFIDCLVR (UniProt Q9UBD5)	0.112
PAFAH1B1_P43034_184_LWDFQGFECIR (UniProt P43034)	0.279
OSGEP_Q9NPF4_277_LQEMMATMCQER (UniProt Q9NPF4)	0.0307
OTUD4_Q01804_489_DEQAFPALSSSSVNQSASQSSNPCVQR (UniProt Q01804)	0.28
PARK7_Q99497_53_DVVICPDASLEDAKK (UniProt Q99497)	0.00417
PAFAH1B1_P43034_281_EHEHVVECISWAPESSYSSISEATGSETKK (UniProt P43034)	0.0377
OPTN_Q96CV9_8_SHQPLSCLTEK (UniProt Q96CV9)	0.154
PARP12_Q9H0J9_85_AHQGSKPGCVGLCAQLHLCR (UniProt Q9H0J9)	-0.0721
PARP14_Q460N5_1265_AILECAGQNVER (UniProt Q460N5)	-0.12
OPLAH_O14841_382_SGLFVVGPESAGAHPGPACYR (UniProt O14841)	0.0731
PAICS_P22234_91+100_CGETAFIAPQCEMIPIEWVCR (UniProt P22234)	-0.0313
OPTN_Q96CV9_239_NYFEHEELTVSQLLLCLR (UniProt Q96CV9)	-0.0336

Same assay, conditions: 50 µM; THP-1; incubation time: 4 h

Target	probe-labelled cysteine peptide fold change
OXR1_Q8N573-2_50_EPAQGDLGCGSPPHRPPAPSSPEGPDTGQK (UniProt Q8N573)	-0.185
OLA1_Q9NTK5_117_GAHNGQGLGNAFLSHISACDGIFHLTR (UniProt Q9NTK5)	-0.139
PA2G4_Q9UQ80_296_MGVVECAKHELLQPFNVLYEK (UniProt Q9UQ80)	-0.434
OTULIN_Q96BN8_347_VCEETSL (UniProt Q96BN8)	-0.127
PARP12_Q9H0J9_276_DSSGSVSPNTLSQEEGDQICLYHIR (UniProt Q9H0J9)	0.172
P4HB_P07237_400_NVFVEFYAPWCGHCK (UniProt P07237)	-0.184
OTULIN_Q96BN8_215_QIACDELFTNEAEEYSLYEAVK (UniProt Q96BN8)	0.229
PARP10_Q53GL7_50_LGCGGVLTFREPADAER (UniProt Q53GL7)	0.0285
OTUB1_Q96FW1_91_TRPDGNCFYR (UniProt Q96FW1)	-0.0617
ORC3_Q9UBD5_639_LHLECSR (UniProt Q9UBD5)	0.148
PAN2_Q504Q3_745_HLPDILVINCEVNSSK (UniProt Q504Q3)	-0.02
OSGEPL1_Q9H4B0_216_HPECSTMSGGK (UniProt Q9H4B0)	0.00379
PARK7_Q99497_46_DPVQCSR (UniProt Q99497)	0.0666
PAG1_Q9NWQ8_179_DSSSQENMVEDCLYETVK (UniProt Q9NWQ8)	-0.549
ORC3_Q9UBD5_10_GCFVFKPNSK (UniProt Q9UBD5)	-0.197
PAPOLA_P51003_677_TEEDETSEDANCLALSGHDK (UniProt P51003)	-0.0683
PAPSS2_O95340_155_KIHESAGLPFFEIFVDAPLNICESR (UniProt O95340)	-0.464
PAFAH1B1_P43034_330_MWDVSTGMCLMTLVGHDNWVR (UniProt P43034)	0.159

Target	probe-labelled cysteine peptide fold change
PAPOLA_P51003_36_ETDCVLTQK (UniProt P51003)	-0.162
PACSIN1_Q9BY11_424_LGEEDEQGWCR (UniProt Q9BY11)	0.235
OSBP_P22059_517_SLCEQVSHHPPAAAHHAESK (UniProt P22059)	-0.0693
OTUD4_Q01804_903_DCGSVSTVDEFPEAR (UniProt Q01804)	-0.0854
OSBPL9_Q96SU4_720_LFHEDGECWVYDEPLLK (UniProt Q96SU4)	-0.21
PAICS_P22234_81+91+100_CGETAFIAPQCEMIPIEWVCR (UniProt P22234)	0.0467
ORC3_Q9UBD5_561_ENVVNFIDCLVR (UniProt Q9UBD5)	0.23
PAFAH1B1_P43034_184_LWDFQGFECIR (UniProt P43034)	-0.0871
OSGEP_Q9NPF4_277_LQEMMATMCQER (UniProt Q9NPF4)	-0.0484
OTUD4_Q01804_489_DEQAFPALSSSSVNQSASQSSNPCVQR (UniProt Q01804)	-0.156
PARK7_Q99497_53_DVVICPDASLEDAKK (UniProt Q99497)	-0.162
PAFAH1B1_P43034_281_EHEHVVECISWAPESSYSSISEATGSETKK (UniProt P43034)	0.0146
OPTN_Q96CV9_8_SHQPLSCLTEK (UniProt Q96CV9)	-0.219
PARP12_Q9H0J9_85_AHQGSKPGCVGLCAQLHLCR (UniProt Q9H0J9)	0.28
PARP14_Q460N5_1265_AILECAGQNVER (UniProt Q460N5)	-0.23
OPLAH_O14841_382_SGLFVVGPESAGAHPGPACYR (UniProt O14841)	0.0631
PAICS_P22234_91+100_CGETAFIAPQCEMIPIEWVCR (UniProt P22234)	-0.0795
OPTN_Q96CV9_239_NYFEHEELTVSQLLLCLR (UniProt Q96CV9)	0.0031
